Experimental data: the supplement of paper PMC10849652
The other results are listed elsewhere or left out.

Protein sequences, listed by entry. Tags and fused reporters are not part of them. Lines headed by an entry give the natural chain unless they say otherwise; changes in a name come on top.
UniProt Q9NUQ3: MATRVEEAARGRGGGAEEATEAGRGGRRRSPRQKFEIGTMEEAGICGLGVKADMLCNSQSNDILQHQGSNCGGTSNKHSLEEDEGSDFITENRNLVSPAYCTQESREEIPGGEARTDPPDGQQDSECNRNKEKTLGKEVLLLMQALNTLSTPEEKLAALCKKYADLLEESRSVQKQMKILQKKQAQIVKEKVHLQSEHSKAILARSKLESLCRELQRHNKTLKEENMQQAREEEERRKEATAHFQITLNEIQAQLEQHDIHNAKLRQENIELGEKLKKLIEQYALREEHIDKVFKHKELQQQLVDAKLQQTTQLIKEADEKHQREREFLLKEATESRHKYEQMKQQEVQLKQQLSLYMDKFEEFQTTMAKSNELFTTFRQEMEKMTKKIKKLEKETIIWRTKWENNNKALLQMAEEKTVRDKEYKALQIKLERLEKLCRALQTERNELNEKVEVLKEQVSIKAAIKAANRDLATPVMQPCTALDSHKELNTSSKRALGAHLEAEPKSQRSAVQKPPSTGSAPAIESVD
UniProt Q15631: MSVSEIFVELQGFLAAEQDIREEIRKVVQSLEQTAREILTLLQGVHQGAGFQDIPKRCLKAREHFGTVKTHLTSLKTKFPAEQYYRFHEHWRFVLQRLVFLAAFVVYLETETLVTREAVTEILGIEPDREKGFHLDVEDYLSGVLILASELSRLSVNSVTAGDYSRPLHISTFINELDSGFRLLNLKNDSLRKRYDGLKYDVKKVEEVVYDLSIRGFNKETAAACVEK
UniProt Q9H4B7, whole entry, looked up: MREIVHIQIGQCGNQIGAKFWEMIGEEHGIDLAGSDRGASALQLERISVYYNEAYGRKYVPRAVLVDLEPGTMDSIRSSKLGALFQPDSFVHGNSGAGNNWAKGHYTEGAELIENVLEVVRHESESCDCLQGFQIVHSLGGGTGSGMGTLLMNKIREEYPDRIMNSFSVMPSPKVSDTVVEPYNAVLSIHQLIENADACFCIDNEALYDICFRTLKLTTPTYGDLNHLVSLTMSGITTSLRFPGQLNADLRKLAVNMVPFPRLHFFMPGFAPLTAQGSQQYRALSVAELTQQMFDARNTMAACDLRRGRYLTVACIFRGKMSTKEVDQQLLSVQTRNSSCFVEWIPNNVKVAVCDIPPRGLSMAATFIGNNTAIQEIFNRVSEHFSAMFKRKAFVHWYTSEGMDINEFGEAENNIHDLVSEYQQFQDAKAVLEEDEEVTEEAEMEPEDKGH
UniProt P61077: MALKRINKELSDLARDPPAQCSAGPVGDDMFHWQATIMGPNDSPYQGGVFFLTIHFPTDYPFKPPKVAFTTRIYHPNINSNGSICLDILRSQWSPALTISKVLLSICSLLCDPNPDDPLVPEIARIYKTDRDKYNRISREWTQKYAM
UniProt Q9C0C9: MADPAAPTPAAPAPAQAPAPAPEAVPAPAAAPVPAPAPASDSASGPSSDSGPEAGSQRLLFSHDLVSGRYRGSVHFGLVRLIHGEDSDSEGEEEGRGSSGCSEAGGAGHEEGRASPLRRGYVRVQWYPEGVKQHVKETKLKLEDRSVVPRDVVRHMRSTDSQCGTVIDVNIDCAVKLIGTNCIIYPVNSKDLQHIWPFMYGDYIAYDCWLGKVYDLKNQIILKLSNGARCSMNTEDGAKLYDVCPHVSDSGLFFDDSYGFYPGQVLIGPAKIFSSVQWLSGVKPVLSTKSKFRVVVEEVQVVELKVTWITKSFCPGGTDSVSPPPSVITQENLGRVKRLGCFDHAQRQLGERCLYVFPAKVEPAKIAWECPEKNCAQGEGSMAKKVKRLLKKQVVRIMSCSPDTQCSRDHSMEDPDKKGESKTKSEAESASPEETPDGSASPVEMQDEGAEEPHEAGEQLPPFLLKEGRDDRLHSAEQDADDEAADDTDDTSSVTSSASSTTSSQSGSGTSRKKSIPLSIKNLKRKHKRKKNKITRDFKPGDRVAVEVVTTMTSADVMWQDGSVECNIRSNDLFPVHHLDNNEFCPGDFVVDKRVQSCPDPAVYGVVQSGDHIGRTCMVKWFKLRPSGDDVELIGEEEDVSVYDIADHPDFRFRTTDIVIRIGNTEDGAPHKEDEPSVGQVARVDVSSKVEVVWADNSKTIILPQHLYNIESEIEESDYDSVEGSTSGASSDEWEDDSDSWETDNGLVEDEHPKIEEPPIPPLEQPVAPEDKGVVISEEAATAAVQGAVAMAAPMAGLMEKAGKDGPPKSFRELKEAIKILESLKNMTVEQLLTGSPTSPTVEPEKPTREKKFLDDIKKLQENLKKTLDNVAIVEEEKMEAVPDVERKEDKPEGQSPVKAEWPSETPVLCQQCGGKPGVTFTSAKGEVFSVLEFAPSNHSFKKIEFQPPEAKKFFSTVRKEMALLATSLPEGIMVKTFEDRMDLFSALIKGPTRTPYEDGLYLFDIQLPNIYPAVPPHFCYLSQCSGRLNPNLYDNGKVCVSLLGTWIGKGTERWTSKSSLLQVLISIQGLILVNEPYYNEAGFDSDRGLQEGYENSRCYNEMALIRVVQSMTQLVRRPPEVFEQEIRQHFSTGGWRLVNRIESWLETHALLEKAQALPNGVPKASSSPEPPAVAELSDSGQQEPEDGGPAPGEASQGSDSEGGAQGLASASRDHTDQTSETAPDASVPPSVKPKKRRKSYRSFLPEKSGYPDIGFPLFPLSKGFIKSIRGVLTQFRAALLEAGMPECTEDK
UniProt Q16222: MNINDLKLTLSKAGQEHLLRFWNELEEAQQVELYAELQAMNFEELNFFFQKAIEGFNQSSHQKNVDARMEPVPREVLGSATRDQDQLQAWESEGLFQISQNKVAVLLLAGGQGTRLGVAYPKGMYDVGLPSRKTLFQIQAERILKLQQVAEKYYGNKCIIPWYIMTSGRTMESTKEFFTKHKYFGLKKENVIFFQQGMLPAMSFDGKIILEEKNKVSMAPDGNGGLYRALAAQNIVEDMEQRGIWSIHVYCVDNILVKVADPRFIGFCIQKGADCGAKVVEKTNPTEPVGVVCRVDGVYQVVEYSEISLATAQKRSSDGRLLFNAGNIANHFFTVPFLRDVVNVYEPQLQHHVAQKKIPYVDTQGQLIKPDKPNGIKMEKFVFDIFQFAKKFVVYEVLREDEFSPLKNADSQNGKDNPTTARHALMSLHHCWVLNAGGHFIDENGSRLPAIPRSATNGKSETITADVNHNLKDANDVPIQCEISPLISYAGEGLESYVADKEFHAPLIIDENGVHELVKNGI
UniProt P0CG48, whole entry, looked up: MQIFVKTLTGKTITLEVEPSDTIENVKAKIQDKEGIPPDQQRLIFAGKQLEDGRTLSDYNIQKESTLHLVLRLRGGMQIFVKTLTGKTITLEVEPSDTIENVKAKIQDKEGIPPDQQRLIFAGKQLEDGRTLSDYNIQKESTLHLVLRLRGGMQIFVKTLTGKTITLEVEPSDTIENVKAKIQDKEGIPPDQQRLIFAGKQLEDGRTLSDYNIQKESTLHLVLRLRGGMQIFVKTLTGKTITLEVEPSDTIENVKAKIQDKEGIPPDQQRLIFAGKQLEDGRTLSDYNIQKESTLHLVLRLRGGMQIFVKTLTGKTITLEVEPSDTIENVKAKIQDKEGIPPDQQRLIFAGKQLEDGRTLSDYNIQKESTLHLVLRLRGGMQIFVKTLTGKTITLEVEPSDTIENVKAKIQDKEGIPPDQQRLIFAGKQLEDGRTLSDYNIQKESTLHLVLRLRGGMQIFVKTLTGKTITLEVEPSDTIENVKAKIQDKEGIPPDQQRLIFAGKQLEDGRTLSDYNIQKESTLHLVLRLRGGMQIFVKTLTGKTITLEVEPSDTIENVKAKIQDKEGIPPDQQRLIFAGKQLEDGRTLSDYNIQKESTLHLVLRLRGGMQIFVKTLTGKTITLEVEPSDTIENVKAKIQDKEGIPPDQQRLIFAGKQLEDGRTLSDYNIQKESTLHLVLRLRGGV
UniProt Q8NG11: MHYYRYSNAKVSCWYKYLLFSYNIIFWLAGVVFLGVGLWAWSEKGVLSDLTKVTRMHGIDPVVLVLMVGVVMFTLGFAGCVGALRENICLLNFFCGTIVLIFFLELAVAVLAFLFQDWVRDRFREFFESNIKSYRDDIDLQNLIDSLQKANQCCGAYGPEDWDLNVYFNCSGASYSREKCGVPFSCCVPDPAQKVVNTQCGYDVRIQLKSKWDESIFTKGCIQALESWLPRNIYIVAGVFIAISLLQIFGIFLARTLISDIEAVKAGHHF
UniProt P60604: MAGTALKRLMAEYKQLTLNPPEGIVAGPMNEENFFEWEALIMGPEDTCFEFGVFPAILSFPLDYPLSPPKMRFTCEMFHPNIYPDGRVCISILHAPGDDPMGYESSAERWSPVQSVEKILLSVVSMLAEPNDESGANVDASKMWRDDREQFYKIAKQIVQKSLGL
UniProt P63146, whole entry, looked up: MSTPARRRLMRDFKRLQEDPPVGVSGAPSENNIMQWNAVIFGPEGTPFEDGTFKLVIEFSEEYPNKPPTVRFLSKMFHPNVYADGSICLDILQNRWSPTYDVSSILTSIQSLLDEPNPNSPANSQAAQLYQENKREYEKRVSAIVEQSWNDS
UniProt Q9GZZ9, whole entry, looked up: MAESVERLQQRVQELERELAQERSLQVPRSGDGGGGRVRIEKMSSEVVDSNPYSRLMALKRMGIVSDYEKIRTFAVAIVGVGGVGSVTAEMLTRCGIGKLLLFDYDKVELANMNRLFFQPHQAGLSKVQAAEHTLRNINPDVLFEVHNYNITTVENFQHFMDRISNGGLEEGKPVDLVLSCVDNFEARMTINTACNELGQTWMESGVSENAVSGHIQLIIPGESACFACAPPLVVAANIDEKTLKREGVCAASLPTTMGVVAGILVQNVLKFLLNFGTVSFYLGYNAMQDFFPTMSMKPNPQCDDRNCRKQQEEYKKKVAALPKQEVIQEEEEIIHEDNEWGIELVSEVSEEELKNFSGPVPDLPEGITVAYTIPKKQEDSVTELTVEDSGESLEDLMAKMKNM
UniProt P61088: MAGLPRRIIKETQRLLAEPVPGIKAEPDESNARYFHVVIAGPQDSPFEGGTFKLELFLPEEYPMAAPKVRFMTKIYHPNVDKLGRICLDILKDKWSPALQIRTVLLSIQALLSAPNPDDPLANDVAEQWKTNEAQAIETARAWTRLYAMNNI
UniProt P62253: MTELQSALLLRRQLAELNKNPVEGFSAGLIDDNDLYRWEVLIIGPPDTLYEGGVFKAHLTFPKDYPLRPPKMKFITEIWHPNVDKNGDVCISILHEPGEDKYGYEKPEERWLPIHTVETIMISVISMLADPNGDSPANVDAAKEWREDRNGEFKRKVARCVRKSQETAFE
UniProt Q969T4: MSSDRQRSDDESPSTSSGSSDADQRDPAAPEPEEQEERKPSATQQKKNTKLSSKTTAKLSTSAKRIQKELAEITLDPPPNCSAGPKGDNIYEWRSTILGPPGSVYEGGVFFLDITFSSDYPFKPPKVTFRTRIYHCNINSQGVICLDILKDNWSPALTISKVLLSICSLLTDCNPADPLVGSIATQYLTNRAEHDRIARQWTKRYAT
UniProt P68036, whole entry, looked up: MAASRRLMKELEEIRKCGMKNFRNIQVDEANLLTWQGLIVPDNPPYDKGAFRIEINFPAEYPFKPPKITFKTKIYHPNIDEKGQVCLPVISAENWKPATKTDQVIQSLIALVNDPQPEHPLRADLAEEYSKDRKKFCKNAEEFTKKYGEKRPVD
UniProt Q13885, whole entry, looked up: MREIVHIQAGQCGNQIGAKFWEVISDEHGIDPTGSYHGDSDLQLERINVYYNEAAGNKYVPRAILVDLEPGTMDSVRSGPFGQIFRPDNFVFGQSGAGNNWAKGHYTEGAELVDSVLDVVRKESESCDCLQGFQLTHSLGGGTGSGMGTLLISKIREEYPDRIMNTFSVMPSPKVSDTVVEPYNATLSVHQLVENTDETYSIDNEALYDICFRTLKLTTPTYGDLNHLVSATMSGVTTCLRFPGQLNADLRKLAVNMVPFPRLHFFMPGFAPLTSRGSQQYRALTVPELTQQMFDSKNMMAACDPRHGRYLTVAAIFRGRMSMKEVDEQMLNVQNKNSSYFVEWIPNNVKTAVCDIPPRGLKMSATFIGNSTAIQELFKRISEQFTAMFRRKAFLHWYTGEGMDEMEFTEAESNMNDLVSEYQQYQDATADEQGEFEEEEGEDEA
UniProt Q9Y5U2: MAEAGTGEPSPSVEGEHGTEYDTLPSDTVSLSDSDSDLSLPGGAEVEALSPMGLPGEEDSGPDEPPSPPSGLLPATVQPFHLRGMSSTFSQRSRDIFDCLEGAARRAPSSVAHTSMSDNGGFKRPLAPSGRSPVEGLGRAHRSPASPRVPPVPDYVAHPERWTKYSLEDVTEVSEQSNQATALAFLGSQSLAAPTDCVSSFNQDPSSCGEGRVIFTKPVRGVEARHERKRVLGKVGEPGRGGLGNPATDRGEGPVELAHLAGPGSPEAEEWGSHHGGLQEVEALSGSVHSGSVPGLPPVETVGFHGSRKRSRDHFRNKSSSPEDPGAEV
UniProt Q01081: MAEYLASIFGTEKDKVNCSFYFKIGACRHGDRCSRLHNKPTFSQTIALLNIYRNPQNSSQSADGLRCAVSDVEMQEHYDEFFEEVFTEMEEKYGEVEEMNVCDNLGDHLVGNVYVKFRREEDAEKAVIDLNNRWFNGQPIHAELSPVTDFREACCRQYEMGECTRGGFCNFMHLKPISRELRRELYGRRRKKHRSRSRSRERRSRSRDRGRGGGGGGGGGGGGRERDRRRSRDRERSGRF

compound: Cc1sc2c(c1C)C(c1ccc(Cl)cc1)=N[C@@H](CC(=O)OC(C)(C)C)c1nnc(C)n1-2; assay: log2 fold change, soluble protein after heating vs DMSO (PISA); higher = thermal stabilisation; K562 cells, 10 uM, 30 min; active = over 0.2 and 3.5 SD of the protein, either way, in both replicates (recomputed)
Summary of the method: (§1)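 K562 cells at 2×10^6 cells/mL were given 10 μM compound for 30 min. Aliquots then went through 3 min of heating across 48°C-58°C, were pooled, and were extracted in PBS with 0.5% NP-40 at 4°C, and the supernatant after 21,000xg for 90 min was quantified by TMTpro 16plex LC-MS/MS with channel sums equalised. Thermal stability relative to control samples, from duplicates, is given as log2 fold change.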

Question: How did the log2 fold change turn out when TYW3 (UniProt Q6IPR3) was run?
Answer: inactive: 0.042

Question: With UBA2 (UniProt Q9UBT2) as the target, how does the log2 fold change read?
Answer: inactive: -0.013

Question: Which log2 fold change does the source give for TXLNG (UniProt Q9NUQ3) here?
Answer: inactive: 0

Question: With TSN (UniProt Q15631) as the target, how does the log2 fold change read?
Answer: inactive: -0.055

Question: For TUBB1 (UniProt Q9H4B7), which log2 fold change is on record?
Answer: inactive: -0.033

Question: Which log2 fold change does the source give for TTN isoform 12 (UniProt Q8WZ42) here?
Answer: inactive: 0.042

Question: Which log2 fold change does the source give for UBE2D3 isoform 3 (UniProt P61077) here?
Answer: inactive: -0.023

Question: Which log2 fold change does the source give for UBE2O (UniProt Q9C0C9) here?
Answer: inactive: 0.004

Question: UAP1 (UniProt Q16222) was tested. Which log2 fold change did it give?
Answer: inactive: -0.008

Question: With UBC (UniProt P0CG48) as the target, how does the log2 fold change read?
Answer: inactive: -0.019

Question: How did the log2 fold change turn out when TSEN54 (UniProt Q7Z6J9) was run?
Answer: inactive: -0.018

Question: TSPAN14 (UniProt Q8NG11) was tested. Which log2 fold change did it give?
Answer: inactive: -0.003

Question: For TWSG1 (UniProt Q9GZX9), which log2 fold change is on record?
Answer: inactive: 0.02

Question: With TUBB4A (UniProt P04350) as the target, how does the log2 fold change read?
Answer: inactive: -0.224

Question: TUBA1C (UniProt Q9BQE3) was tested. Which log2 fold change did it give?
Answer: inactive: 0.006

Question: Which log2 fold change does the source give for TUBB8B (UniProt A6NNZ2) here?
Answer: inactive: -0.083

Question: For UBE2G2 (UniProt P60604), which log2 fold change is on record?
Answer: inactive: -0.317

Question: For TTC7B isoform 2 (UniProt Q86TV6), which log2 fold change is on record?
Answer: inactive: -0.006

Question: Which log2 fold change does the source give for UBE2B (UniProt P63146) here?
Answer: inactive: 0.025

Question: For UBA5 (UniProt Q9GZZ9), which log2 fold change is on record?
Answer: inactive: -0.003

Question: With UBE2N (UniProt P61088) as the target, how does the log2 fold change read?
Answer: inactive: -0.115

Question: TXNL4A (UniProt P83876) was tested. Which log2 fold change did it give?
Answer: inactive: -0.002

Question: With UBE2G1 (UniProt P62253) as the target, how does the log2 fold change read?
Answer: inactive: -0.023

Question: UBE2E3 (UniProt Q969T4) was tested. Which log2 fold change did it give?
Answer: inactive: -0.088

Question: UBAC2 (UniProt Q8NBM4) was tested. Which log2 fold change did it give?
Answer: inactive: -0.126

Question: How did the log2 fold change turn out when UBE2L3 isoform 3 (UniProt P68036) was run?
Answer: inactive: -0.004

Question: With TSR1 (UniProt Q2NL82) as the target, how does the log2 fold change read?
Answer: inactive: 0.198

Question: Which log2 fold change does the source give for UBAC1 (UniProt Q9BSL1) here?
Answer: inactive: 0.022

Question: Which log2 fold change does the source give for TUBGCP2 isoform 4 (UniProt Q9BSJ2) here?
Answer: inactive: 0

Question: TUBB6 (UniProt K7ES63) was tested. Which log2 fold change did it give?
Answer: inactive: 0.105

Question: TTC4 (UniProt O95801) was tested. Which log2 fold change did it give?
Answer: inactive: 0.022

Question: With TUBB2A (UniProt Q13885) as the target, how does the log2 fold change read?
Answer: inactive: -0.018

Question: With TUBE1 (UniProt Q9UJT0) as the target, how does the log2 fold change read?
Answer: inactive: -0.007

Question: How did the log2 fold change turn out when TUBG1 (UniProt P23258) was run?
Answer: inactive: 0.015

Question: TSSC4 (UniProt Q9Y5U2) was tested. Which log2 fold change did it give?
Answer: inactive: 0.044

Question: Which log2 fold change does the source give for TXNDC17 (UniProt Q9BRA2) here?
Answer: inactive: -0.021

Question: With U2AF1 isoform 2 (UniProt Q01081) as the target, how does the log2 fold change read?
Answer: inactive: -0.02

Question: Which log2 fold change does the source give for TWF1 (UniProt Q12792) here?
Answer: inactive: -0.017

compound: c1ccc([C@@H]2C[C@H]2NC2CCNCC2)cc1; assay: as above
Summary of the method: as §1

Question: With TYW3 (UniProt Q6IPR3) as the target, how does the log2 fold change read?
Answer: inactive: -0.022

Question: For UBA2 (UniProt Q9UBT2), which log2 fold change is on record?
Answer: inactive: -0.024

Question: TXLNG (UniProt Q9NUQ3) was tested. Which log2 fold change did it give?
Answer: inactive: 0.036

Question: For TSN (UniProt Q15631), which log2 fold change is on record?
Answer: inactive: 0.002

Question: With TUBB1 (UniProt Q9H4B7) as the target, how does the log2 fold change read?
Answer: inactive: -0.043

Question: For TTN isoform 12 (UniProt Q8WZ42), which log2 fold change is on record?
Answer: inactive: 0.019

Question: For UBE2D3 isoform 3 (UniProt P61077), which log2 fold change is on record?
Answer: inactive: 0.003

Question: UBE2O (UniProt Q9C0C9) was tested. Which log2 fold change did it give?
Answer: inactive: -0.024

Question: Which log2 fold change does the source give for UAP1 (UniProt Q16222) here?
Answer: inactive: -0.033

Question: With UBC (UniProt P0CG48) as the target, how does the log2 fold change read?
Answer: inactive: -0.061

Question: How did the log2 fold change turn out when TSEN54 (UniProt Q7Z6J9) was run?
Answer: inactive: -0.044

Question: How did the log2 fold change turn out when TSPAN14 (UniProt Q8NG11) was run?
Answer: inactive: 0.092

Question: TWSG1 (UniProt Q9GZX9) was tested. Which log2 fold change did it give?
Answer: inactive: -0.015

Question: TUBB4A (UniProt P04350) was tested. Which log2 fold change did it give?
Answer: inactive: 0.043

Question: How did the log2 fold change turn out when TUBA1C (UniProt Q9BQE3) was run?
Answer: inactive: -0.012

Question: With TUBB8B (UniProt A6NNZ2) as the target, how does the log2 fold change read?
Answer: inactive: -0.042

Question: For UBE2G2 (UniProt P60604), which log2 fold change is on record?
Answer: inactive: -0.039

Question: Which log2 fold change does the source give for TTC7B isoform 2 (UniProt Q86TV6) here?
Answer: inactive: -0.12

Question: With UBE2B (UniProt P63146) as the target, how does the log2 fold change read?
Answer: inactive: -0.069

Question: Which log2 fold change does the source give for UBA5 (UniProt Q9GZZ9) here?
Answer: inactive: 0.003

Question: How did the log2 fold change turn out when UBE2N (UniProt P61088) was run?
Answer: inactive: -0.025

Question: For TXNL4A (UniProt P83876), which log2 fold change is on record?
Answer: inactive: 0.051

Question: For UBE2G1 (UniProt P62253), which log2 fold change is on record?
Answer: inactive: -0.039

Question: With UBE2E3 (UniProt Q969T4) as the target, how does the log2 fold change read?
Answer: inactive: -0.023

Question: For UBAC2 (UniProt Q8NBM4), which log2 fold change is on record?
Answer: inactive: -0.03

Question: For UBE2L3 isoform 3 (UniProt P68036), which log2 fold change is on record?
Answer: inactive: -0.019

Question: TSR1 (UniProt Q2NL82) was tested. Which log2 fold change did it give?
Answer: inactive: -0.034

Question: For UBAC1 (UniProt Q9BSL1), which log2 fold change is on record?
Answer: inactive: -0.032

Question: Which log2 fold change does the source give for TUBGCP2 isoform 4 (UniProt Q9BSJ2) here?
Answer: inactive: 0.011

Question: With TUBB6 (UniProt K7ES63) as the target, how does the log2 fold change read?
Answer: inactive: 0.19

Question: How did the log2 fold change turn out when TTC4 (UniProt O95801) was run?
Answer: inactive: -0.029

Question: TUBB2A (UniProt Q13885) was tested. Which log2 fold change did it give?
Answer: inactive: -0.042

Question: Which log2 fold change does the source give for TUBE1 (UniProt Q9UJT0) here?
Answer: inactive: -0.132

Question: TUBG1 (UniProt P23258) was tested. Which log2 fold change did it give?
Answer: inactive: 0.041

Question: With TSSC4 (UniProt Q9Y5U2) as the target, how does the log2 fold change read?
Answer: inactive: 0.03

Question: For TXNDC17 (UniProt Q9BRA2), which log2 fold change is on record?
Answer: inactive: -0.001

Question: U2AF1 isoform 2 (UniProt Q01081) was tested. Which log2 fold change did it give?
Answer: inactive: 0.035

Question: With TWF1 (UniProt Q12792) as the target, how does the log2 fold change read?
Answer: inactive: -0.106
